This is one part of the list.
Key:
Assay in all cases: glycan array binding signal (z-score within array); higher = stronger binding
Settings in all cases: glycan notation: IUPAC condensed, linker removed
[1] = biological target: Man(a1-2)Man(a1-3)[Man(a1-2)Man(a1-6)]Man(a1-6)[Man(a1-2)Man(a1-2)Man(a1-3)]Man
In short: (§1)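 Glycan array binding is given as a within-array Z-score, which can be read as non-binding when negative. The arrays, 3228 of them, came from the Consortium for Functional Glycomics database and were retained only where the protein sequence was available. Z-scores were averaged across arrays of the same protein sequence at different concentrations or buffers and across linkers.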

[2] = biological target: Man(a1-2)Man(a1-3)[Man(a1-2)Man(a1-6)]Man(a1-6)[Man(a1-2)Man(a1-2)Man(a1-3)]Man(b1-4)GlcNAc(b1-4)GlcNAc
In short: as §1

[3] = biological target: Man(a1-2)Man(a1-3)[Man(a1-6)]Man(a1-6)[Man(a1-2)Man(a1-3)]Man(b1-4)GlcNAc(b1-4)GlcNAc
In short: as §1

[4] = biological target: Man(a1-2)Man(a1-6)[Man(a1-3)]Man(a1-6)[Man(a1-2)Man(a1-2)Man(a1-3)]Man
In short: as §1

[5] = biological target: Man(a1-2)Man(a1-6)[Man(a1-3)]Man(a1-6)[Man(a1-2)Man(a1-2)Man(a1-3)]Man(b1-4)GlcNAc(b1-4)GlcNAc
In short: as §1

Man(a1-3)[Man(a1-6)]Man = biological target: Man(a1-3)[Man(a1-6)]Man
In short: as §1

[6] = biological target: Man(a1-3)[Man(a1-6)]Man(a1-6)[Man(a1-2)Man(a1-3)]Man(b1-4)GlcNAc(b1-4)GlcNAc
In short: as §1

[7] = biological target: Man(a1-3)[Man(a1-6)]Man(a1-6)[Man(a1-3)]Man
In short: as §1

[8] = biological target: Man(a1-3)[Man(a1-6)]Man(a1-6)[Man(a1-3)]Man(b1-4)GlcNAc(b1-4)GlcNAc
In short: as §1

[9] = biological target: Man(a1-3)[Man(a1-6)]Man(b1-4)GlcNAc(b1-4)GlcNAc
In short: as §1

[10] = biological target: Man(a1-3)[Man(a1-6)]Man(b1-4)GlcNAc(b1-4)[Fuc(a1-6)]GlcNAc
In short: as §1

Man(a1-6)Man = biological target: Man(a1-6)Man
In short: as §1

Man(b1-4)GlcNAc = biological target: Man(b1-4)GlcNAc
In short: as §1

MurNAc(b1-4)GlcNAc = biological target: MurNAc(b1-4)GlcNAc
In short: as §1

Neu5Ac(a2-3)Gal = biological target: Neu5Ac(a2-3)Gal
In short: as §1

[11] = biological target: Neu5Ac(a2-3)Gal(b1-3)GalNAc
In short: as §1

[12] = biological target: Neu5Ac(a2-3)Gal(b1-3)GalNAc(b1-3)Gal(a1-4)Gal(b1-4)Glc
In short: as §1

[13] = biological target: Neu5Ac(a2-3)Gal(b1-3)GalNAc(b1-4)Gal(b1-4)Glc
In short: as §1

[14] = biological target: Neu5Ac(a2-3)Gal(b1-3)GalNAc(b1-4)[Neu5Ac(a2-3)]Gal(b1-4)Glc
In short: as §1

[15] = biological target: Neu5Ac(a2-3)Gal(b1-3)GalNAc(b1-4)[Neu5Ac(a2-8)Neu5Ac(a2-3)]Gal(b1-4)Glc
In short: as §1

[16] = biological target: Neu5Ac(a2-3)Gal(b1-3)GalNAc6S
In short: as §1

[17] = biological target: Neu5Ac(a2-3)Gal(b1-3)GlcNAc
In short: as §1

[18] = biological target: Neu5Ac(a2-3)Gal(b1-3)GlcNAc(b1-2)Man
In short: as §1

[19] = biological target: Neu5Ac(a2-3)Gal(b1-3)GlcNAc(b1-2)Man(a1-3)[GlcNAc(b1-4)][Neu5Ac(a2-3)Gal(b1-3)GlcNAc(b1-2)Man(a1-6)]Man(b1-4)GlcNAc(b1-4)GlcNAc
In short: as §1

[20] = biological target: Neu5Ac(a2-3)Gal(b1-3)GlcNAc(b1-2)Man(a1-3)[Neu5Ac(a2-3)Gal(b1-3)GlcNAc(b1-2)Man(a1-6)]Man(b1-4)GlcNAc(b1-4)GlcNAc
In short: as §1

[21] = biological target: Neu5Ac(a2-3)Gal(b1-3)GlcNAc(b1-2)[Neu5Ac(a2-3)Gal(b1-3)GlcNAc(b1-4)]Man(a1-6)[Neu5Ac(a2-3)Gal(b1-3)GlcNAc(b1-2)Man(a1-3)]Man(b1-4)GlcNAc(b1-4)GlcNAc
In short: as §1

[22] = biological target: Neu5Ac(a2-3)Gal(b1-3)GlcNAc(b1-3)Gal(b1-3)GlcNAc
In short: as §1

[23] = biological target: Neu5Ac(a2-3)Gal(b1-3)GlcNAc(b1-3)Gal(b1-4)GlcNAc
In short: as §1

[24] = biological target: Neu5Ac(a2-3)Gal(b1-3)GlcNAc(b1-3)GalNAc
In short: as §1

[25] = biological target: Neu5Ac(a2-3)Gal(b1-3)GlcNAc(b1-6)GalNAc
In short: as §1

[26] = biological target: Neu5Ac(a2-3)Gal(b1-3)GlcNAc6S
In short: as §1

[27] = biological target: Neu5Ac(a2-3)Gal(b1-3)[Fuc(a1-4)]GlcNAc
In short: as §1

[28] = biological target: Neu5Ac(a2-3)Gal(b1-3)[Fuc(a1-4)]GlcNAc(b1-3)Gal(b1-3)[Fuc(a1-4)]GlcNAc
In short: as §1

[29] = biological target: Neu5Ac(a2-3)Gal(b1-3)[Fuc(a1-4)]GlcNAc(b1-3)Gal(b1-4)[Fuc(a1-3)]GlcNAc
In short: as §1

[30] = biological target: Neu5Ac(a2-3)Gal(b1-3)[GlcNAc(b1-6)]GalNAc
In short: as §1

[31] = biological target: Neu5Ac(a2-3)Gal(b1-3)[Neu5Ac(a2-6)]GalNAc
In short: as §1

[32] = biological target: Neu5Ac(a2-3)Gal(b1-3)[Neu5Ac(a2-6)]GlcNAc(b1-3)[Fuc(a1-3)[Gal(b1-4)]GlcNAc(b1-6)]Gal(b1-4)Glc
In short: as §1

B1: Thrombomodulin Lectin (Mus musculus) (protein)
chain: LSALAKLQPTGSQCVEHECFALFQGPATFLDASQACQRLQGHLMTVRSSVAADVISLLLSQSSMDLGPWIGLQLPQGCDDPVHLGPLRGFQWVTGDNHTSYSRWARPNDQTAPLCGPLCVTVSTATEAAPGEPAWEEKPCETETQGFLCEFYFTASCRVDPIPVREDTKEEEGAGEPPVSPTPGSPTGPPSARPVLDEPRVPITQNPCPPLKECPPCAAPDLEGGPSVFIFPPKIKDVLMISLSPMVTCVVVDVSEDDPDVQISWFVNNVEVHTAQTQTHREDYNSTLRVVSALPIQHQDWMSGKAFACAVNNRALPSPIEKTISKPRGPVRAPQVYVLPPPAEEMTKKEFSLTCMITGFLPAEIAVDWTSNGRTEQNYKNTATVLDSDGSYFMYSKLRVQKSTWERGSLFACSVVHEGLHNHLTTKTISRSLGK
[1]
  glycan array binding signal (z-score): -1.07
[2]
  glycan array binding signal (z-score): 0.651
[3]
  glycan array binding signal (z-score): -0.304
[4]
  glycan array binding signal (z-score): 0.767
[5]
  glycan array binding signal (z-score): 0.137
Man(a1-3)[Man(a1-6)]Man
  glycan array binding signal (z-score): 1.85
[6]
  glycan array binding signal (z-score): -0.589
[7]
  glycan array binding signal (z-score): -0.093
[8]
  glycan array binding signal (z-score): 0.618
[9]
  glycan array binding signal (z-score): 0.13
[10]
  glycan array binding signal (z-score): -1.31
Man(a1-6)Man
  glycan array binding signal (z-score): -0.089
Man(b1-4)GlcNAc
  glycan array binding signal (z-score): 0.217
MurNAc(b1-4)GlcNAc
  glycan array binding signal (z-score): -0.179
Neu5Ac(a2-3)Gal
  glycan array binding signal (z-score): -1.31
[11]
  glycan array binding signal (z-score): -0.397
[12]
  glycan array binding signal (z-score): -1.2
[13]
  glycan array binding signal (z-score): -1.02
[14]
  glycan array binding signal (z-score): -0.038
[15]
  glycan array binding signal (z-score): -0.054
[16]
  glycan array binding signal (z-score): -0.129
[17]
  glycan array binding signal (z-score): -0.01
[18]
  glycan array binding signal (z-score): 0.18
[19]
  glycan array binding signal (z-score): -0.855
[20]
  glycan array binding signal (z-score): -0.688
[21]
  glycan array binding signal (z-score): 0.153
[22]
  glycan array binding signal (z-score): -1.59
[23]
  glycan array binding signal (z-score): -1.3
[24]
  glycan array binding signal (z-score): -0.1
[25]
  glycan array binding signal (z-score): 0.213
[26]
  glycan array binding signal (z-score): -0.318
[27]
  glycan array binding signal (z-score): 0.523
[28]
  glycan array binding signal (z-score): -0.246
[29]
  glycan array binding signal (z-score): 0.336
[30]
  glycan array binding signal (z-score): 1.25
[31]
  glycan array binding signal (z-score): 1.16
[32]
  glycan array binding signal (z-score): -0.645
